# Measurements reported in PubChem BioAssay AID1259254 (NCATS, 2017).
# Screen: 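Finding genes that stop cells copying their DNA twice in one cycle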 (primary screen)
# System: human HCT116 colorectal cancer cells
# Reagent: single siRNA against human genes
# Time to read-out: 3 days
# Detection: 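Imaged Hoechst DNA stain sorts each cell into a cycle phase by DNA amount; per plate, G2 fraction set to 0% for non-targeting and 100% for GMNN siRNA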
# Reading the numbers: G2 robust z-score: higher = more G2 cells, more excess DNA replication
# Hit rule: 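Active siRNAs have a G2 robust z of 5 or more median absolute deviations over the median, which in these data means about 38% or higher of GMNN control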
# Here is one part, drawn at random, of about 59,000 deposited reagents. Over the whole deposit, about 1,550 (2.6%) were called active. 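G2 share is only a proxy for re-replication; each gene was hit by three separate siRNAs, and active genes were retested.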 The numbers tell different reagents against one gene apart. Further read-outs or replicates are left out here. Reagent sequences are not shown. Not stated in the record: the amount of reagent.
G2 robust z-score,Call,target,reagent
-0.836,inactive,C11orf68,1
-0.492,inactive,C11orf68,2
0.988,inactive,C11orf68,3
-0.0984,inactive,LINC00703,1
-0.0302,inactive,LINC00703,2
0.542,inactive,LINC00703,3
0.846,inactive,SERPINA13P,1
0.881,inactive,SERPINA13P,2
1.57,inactive,SERPINA13P,3
0.419,inactive,APBA2,1
-0.233,inactive,APBA2,2
-0.651,inactive,APBA2,3

3 successive records already listed, quoted:
G2 robust z-score,Call,target,reagent
-0.836,inactive,C11orf68,1
-0.492,inactive,C11orf68,2
0.988,inactive,C11orf68,3

Additional reagents follow.
G2 robust z-score,Call,target,reagent
-0.0251,inactive,MCM3AP,1
0.815,inactive,MCM3AP,2
0.711,inactive,MCM3AP,3
-1.15,inactive,XYLB,1
-1.15,inactive,XYLB,2
0.683,inactive,XYLB,3
-0.819,inactive,LHX4,1
0.0603,inactive,LHX4,2
2.92,inactive,LHX4,3
0.315,inactive,TENT5A,1
1.59,inactive,TENT5A,2
0.00955,inactive,TENT5A,3
2.61,inactive,FPR2,1
-0.371,inactive,FPR2,2
1.37,inactive,FPR2,3
-1.3,inactive,KASH5,1
3.83,inactive,KASH5,2
3.6,inactive,KASH5,3
